Reference: the supplement of paper PMC10849652
Some of the results follow.

Amino acid sequences for entries named in this document (tags omitted). A change or cut given only in a name is not applied to a line headed by its entry.
UniProt Q8NBT0: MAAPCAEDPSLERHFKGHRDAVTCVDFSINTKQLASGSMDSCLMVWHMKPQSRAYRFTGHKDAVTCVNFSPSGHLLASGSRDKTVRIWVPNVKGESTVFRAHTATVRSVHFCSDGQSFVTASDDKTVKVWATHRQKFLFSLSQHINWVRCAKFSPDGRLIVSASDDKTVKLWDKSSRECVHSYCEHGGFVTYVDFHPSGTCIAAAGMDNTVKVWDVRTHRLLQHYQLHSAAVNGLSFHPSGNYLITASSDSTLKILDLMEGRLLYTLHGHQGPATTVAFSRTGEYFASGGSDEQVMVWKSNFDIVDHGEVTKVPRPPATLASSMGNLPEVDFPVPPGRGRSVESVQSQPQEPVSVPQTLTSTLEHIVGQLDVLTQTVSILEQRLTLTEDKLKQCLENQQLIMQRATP
UniProt P11086: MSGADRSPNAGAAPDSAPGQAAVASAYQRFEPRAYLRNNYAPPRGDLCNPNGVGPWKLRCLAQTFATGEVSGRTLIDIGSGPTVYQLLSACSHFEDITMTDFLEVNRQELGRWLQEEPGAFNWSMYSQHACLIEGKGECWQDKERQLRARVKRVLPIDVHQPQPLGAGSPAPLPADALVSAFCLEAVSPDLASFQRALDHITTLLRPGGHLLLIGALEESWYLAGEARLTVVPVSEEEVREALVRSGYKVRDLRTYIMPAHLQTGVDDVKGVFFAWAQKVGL
UniProt A8CG34, whole entry, looked up: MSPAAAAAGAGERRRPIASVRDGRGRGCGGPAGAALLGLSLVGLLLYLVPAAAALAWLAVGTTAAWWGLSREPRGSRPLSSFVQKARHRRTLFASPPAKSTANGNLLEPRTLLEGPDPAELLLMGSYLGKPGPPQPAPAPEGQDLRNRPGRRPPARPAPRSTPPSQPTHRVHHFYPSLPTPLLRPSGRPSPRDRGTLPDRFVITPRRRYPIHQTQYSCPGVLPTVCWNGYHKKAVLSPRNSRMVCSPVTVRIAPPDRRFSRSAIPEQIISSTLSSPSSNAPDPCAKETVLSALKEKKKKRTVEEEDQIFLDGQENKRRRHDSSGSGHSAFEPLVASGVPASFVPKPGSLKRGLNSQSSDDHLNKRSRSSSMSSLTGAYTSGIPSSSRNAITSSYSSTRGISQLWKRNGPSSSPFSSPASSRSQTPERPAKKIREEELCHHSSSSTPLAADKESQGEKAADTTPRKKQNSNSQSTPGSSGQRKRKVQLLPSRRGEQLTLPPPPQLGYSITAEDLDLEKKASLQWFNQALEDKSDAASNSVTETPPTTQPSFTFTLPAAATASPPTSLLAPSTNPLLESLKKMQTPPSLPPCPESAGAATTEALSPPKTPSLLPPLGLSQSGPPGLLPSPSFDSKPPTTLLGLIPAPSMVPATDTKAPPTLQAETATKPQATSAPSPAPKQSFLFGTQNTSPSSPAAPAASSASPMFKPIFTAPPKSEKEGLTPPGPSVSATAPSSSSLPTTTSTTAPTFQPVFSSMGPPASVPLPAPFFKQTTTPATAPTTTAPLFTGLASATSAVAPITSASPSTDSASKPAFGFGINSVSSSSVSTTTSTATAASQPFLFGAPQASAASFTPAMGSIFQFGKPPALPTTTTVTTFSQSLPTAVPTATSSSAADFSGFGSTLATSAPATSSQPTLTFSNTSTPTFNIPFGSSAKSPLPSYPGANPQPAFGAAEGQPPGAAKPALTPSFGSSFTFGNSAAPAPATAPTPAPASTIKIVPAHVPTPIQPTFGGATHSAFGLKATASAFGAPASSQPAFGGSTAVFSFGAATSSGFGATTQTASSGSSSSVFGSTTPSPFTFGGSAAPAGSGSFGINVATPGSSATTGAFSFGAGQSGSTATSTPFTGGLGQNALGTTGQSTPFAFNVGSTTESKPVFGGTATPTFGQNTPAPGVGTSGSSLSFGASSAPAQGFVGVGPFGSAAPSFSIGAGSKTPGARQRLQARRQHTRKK
UniProt O43157, whole entry, looked up: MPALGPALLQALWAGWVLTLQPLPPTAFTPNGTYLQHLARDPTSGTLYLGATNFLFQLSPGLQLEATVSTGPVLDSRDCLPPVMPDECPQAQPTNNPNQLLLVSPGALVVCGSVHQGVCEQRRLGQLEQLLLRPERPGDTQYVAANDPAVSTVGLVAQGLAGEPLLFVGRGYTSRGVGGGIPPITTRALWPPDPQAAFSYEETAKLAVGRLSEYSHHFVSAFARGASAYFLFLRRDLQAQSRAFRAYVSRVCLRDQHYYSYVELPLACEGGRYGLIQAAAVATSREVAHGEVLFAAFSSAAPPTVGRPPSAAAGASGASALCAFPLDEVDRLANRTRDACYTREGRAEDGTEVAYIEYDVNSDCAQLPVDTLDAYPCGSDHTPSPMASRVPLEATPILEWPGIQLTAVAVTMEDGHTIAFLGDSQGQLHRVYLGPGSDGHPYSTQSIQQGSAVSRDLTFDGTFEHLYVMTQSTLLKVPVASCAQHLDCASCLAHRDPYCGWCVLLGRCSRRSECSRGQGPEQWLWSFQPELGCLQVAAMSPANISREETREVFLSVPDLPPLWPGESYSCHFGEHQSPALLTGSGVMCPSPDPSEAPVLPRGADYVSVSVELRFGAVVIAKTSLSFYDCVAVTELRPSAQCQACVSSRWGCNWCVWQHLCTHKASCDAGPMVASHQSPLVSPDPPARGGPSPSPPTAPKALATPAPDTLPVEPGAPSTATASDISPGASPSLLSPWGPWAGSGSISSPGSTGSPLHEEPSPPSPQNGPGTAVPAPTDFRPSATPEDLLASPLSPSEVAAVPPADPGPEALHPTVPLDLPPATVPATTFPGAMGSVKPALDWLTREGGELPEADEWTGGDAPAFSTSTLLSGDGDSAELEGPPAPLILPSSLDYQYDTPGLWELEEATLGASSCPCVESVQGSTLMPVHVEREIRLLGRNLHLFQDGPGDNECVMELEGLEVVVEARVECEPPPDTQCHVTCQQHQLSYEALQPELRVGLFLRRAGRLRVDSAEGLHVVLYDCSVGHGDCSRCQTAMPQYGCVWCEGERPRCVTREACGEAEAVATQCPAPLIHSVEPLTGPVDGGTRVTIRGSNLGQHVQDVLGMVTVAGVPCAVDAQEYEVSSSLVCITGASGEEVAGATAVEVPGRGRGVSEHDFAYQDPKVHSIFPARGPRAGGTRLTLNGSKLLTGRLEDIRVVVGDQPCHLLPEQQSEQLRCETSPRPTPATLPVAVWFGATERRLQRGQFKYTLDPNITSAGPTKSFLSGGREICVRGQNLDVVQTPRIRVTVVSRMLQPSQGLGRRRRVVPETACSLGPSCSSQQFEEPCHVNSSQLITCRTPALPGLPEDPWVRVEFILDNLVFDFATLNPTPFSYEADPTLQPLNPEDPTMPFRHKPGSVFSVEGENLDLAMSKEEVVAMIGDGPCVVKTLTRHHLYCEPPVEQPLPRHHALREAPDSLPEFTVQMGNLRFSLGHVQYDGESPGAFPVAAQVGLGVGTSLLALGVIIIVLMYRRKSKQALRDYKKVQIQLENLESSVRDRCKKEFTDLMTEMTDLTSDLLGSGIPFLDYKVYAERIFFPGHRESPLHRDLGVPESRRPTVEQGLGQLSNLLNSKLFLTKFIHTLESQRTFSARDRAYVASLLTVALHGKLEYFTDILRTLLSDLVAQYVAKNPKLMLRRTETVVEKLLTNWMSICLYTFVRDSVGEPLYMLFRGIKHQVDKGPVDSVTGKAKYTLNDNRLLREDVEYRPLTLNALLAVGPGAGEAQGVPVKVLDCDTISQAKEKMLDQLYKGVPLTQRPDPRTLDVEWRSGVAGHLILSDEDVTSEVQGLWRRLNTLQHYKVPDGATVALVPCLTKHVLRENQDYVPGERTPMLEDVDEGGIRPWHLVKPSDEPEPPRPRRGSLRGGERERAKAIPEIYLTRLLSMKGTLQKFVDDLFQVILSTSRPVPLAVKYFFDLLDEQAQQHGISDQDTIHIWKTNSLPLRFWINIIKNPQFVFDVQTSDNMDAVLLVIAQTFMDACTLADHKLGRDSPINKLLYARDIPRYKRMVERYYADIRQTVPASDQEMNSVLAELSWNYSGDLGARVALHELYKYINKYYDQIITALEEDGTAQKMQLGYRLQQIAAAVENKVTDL
UniProt P55058, whole entry, looked up: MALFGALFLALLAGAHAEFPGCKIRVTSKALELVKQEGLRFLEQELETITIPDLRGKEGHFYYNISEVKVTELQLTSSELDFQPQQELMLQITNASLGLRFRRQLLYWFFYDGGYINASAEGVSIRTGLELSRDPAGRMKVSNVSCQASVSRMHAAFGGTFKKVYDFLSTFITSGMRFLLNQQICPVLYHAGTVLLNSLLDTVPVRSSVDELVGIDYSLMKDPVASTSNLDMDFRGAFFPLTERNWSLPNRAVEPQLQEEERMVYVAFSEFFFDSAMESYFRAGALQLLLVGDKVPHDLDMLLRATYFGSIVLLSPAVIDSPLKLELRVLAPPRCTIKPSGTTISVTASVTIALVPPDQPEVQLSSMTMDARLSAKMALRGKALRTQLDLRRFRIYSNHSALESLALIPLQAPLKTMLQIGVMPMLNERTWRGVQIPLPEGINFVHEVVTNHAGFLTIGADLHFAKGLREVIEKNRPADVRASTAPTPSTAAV
UniProt P62937, whole entry, looked up: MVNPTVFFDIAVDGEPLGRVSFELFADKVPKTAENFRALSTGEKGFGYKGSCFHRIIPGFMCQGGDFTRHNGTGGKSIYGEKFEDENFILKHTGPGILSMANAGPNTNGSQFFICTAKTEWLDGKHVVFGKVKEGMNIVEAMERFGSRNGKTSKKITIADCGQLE
UniProt Q58EX7: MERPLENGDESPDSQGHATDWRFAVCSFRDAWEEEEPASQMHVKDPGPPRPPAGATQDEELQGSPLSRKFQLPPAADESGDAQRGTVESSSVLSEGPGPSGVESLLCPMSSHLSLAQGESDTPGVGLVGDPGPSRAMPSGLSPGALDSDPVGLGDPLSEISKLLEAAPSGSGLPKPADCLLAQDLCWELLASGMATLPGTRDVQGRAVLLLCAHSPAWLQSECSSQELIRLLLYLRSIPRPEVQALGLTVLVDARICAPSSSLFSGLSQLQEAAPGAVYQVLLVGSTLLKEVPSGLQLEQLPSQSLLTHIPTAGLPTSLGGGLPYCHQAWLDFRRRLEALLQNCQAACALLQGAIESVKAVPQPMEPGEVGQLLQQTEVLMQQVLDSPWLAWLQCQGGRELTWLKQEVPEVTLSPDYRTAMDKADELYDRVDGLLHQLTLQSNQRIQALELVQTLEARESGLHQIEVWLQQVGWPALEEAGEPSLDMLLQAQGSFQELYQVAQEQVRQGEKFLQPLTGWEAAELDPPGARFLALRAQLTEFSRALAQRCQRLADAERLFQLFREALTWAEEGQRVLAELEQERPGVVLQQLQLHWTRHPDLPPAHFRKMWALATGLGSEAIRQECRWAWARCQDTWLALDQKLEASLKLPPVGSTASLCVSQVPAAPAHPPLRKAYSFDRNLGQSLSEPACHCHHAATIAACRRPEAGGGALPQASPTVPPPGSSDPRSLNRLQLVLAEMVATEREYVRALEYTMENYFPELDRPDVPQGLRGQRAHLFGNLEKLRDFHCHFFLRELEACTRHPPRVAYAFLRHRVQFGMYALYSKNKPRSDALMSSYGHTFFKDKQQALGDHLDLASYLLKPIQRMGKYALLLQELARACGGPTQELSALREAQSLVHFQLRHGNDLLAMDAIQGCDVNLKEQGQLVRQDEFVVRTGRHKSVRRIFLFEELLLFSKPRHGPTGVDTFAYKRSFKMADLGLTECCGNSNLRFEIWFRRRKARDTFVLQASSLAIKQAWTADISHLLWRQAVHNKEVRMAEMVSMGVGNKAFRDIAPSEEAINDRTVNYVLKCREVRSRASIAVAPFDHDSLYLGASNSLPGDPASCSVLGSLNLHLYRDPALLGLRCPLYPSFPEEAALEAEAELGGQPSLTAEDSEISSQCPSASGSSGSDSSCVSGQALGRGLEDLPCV
UniProt Q9HBL7: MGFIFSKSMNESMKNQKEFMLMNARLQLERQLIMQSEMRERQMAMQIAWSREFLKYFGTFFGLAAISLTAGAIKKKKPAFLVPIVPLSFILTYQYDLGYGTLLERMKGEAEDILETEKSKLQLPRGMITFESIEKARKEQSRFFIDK
UniProt Q9H237: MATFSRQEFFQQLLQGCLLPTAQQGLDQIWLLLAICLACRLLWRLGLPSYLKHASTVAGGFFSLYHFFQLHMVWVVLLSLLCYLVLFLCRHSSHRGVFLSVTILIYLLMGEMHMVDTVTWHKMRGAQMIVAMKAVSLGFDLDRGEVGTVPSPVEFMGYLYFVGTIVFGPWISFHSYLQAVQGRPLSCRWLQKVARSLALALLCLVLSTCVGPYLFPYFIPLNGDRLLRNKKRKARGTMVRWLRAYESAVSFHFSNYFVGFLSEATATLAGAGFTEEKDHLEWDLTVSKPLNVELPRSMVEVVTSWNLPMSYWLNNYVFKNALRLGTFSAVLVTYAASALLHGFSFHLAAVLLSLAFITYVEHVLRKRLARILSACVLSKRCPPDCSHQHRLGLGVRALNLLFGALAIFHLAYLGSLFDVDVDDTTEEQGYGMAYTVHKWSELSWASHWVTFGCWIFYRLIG

What follows are targets tested with COc1cc2nc(-c3cc(F)ccc3O)nc(N[C@@H]3CNC[C@H]3C(C)(C)O)c2cc1OC (assay: log2 fold change, soluble protein after heating vs DMSO (PISA); higher = thermal stabilisation; K562 lysate, 10 uM; active = over 0.2 and 3.5 SD of the protein, either way, in both replicates (recomputed)).
Summary of the method: (§1)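 Soluble protein was defined as the supernatant remaining after 21,000xg for 90 min, following pooling of heated aliquots and adjustment to 0.5% NP-40 at 4°C. Before that, crude K562 extract at 1 mg/mL protein in PBS pH 7.4 with 1 mM MgCl2 was treated with 10 μM compound for 30 min and heated for 3 min across 48°C-58°C. Quantification used TMTpro 16plex LC-MS/MS with channel sums equalised, and values are log-two fold changes in thermal stability relative to solvent controls from duplicates.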

log2 fold change, inactive:
POTEKP (UniProt Q9BYX7) 1.68
POMT1 (UniProt Q9Y6A1) 0.177
POLK (UniProt Q9UBT6) 0.363
POLG2 (UniProt J3KRM2) 0.114
PMS2CL (UniProt Q68D20) 0.108
POC1A (UniProt Q8NBT0) -0.001
POLR2J (UniProt P52435) -0.012
PNMT (UniProt P11086) -0.022
PNMA8A (UniProt Q86V59) 0.083
POM121C (UniProt A8CG34) -0.076

What follows are targets tested with COc1cc2ncnc(Nc3ccc(F)c(Cl)c3)c2cc1OCCCN1CCOCC1 [gefitinib] in the same assay as above.
Summary of the method: as §1

log2 fold change, inactive:
PLXNB1 (UniProt O43157) -0.026
POTEKP (UniProt Q9BYX7) 0.872
PLTP (UniProt P55058) -0.013
POLK (UniProt Q9UBT6) 0.014
PMM1 (UniProt Q92871) -0.041
POLG2 (UniProt J3KRM2) 0.021
POLI (UniProt Q9UNA4) -0.141
PMS1 (UniProt P54277) 0.049
PPIA isoform 2 (UniProt P62937) 0.207
PLXND1 (UniProt Q9Y4D7) 0.313
PLPP6 (UniProt Q8IY26) -0.028
POC1A (UniProt Q8NBT0) 0.002
POLR2J (UniProt P52435) -0.062
PPIC (UniProt P45877) 0.103
PLEKHG4 (UniProt Q58EX7) 0.206
PLGRKT (UniProt Q9HBL7) -0.108
PNMA8A (UniProt Q86V59) 0.074
PORCN (UniProt Q9H237) 0.385
